Test results published in article PMC7933818.
Results are given in words; binding and its absence hold for the method and conditions named. In cells and extracts the contact can be indirect. Binding can be weak; no strength is given.

Molecular target: NF90 (Jurkat) (human (endogenous in Jurkat))
Test: co-IP; Jurkat cells treated with PMA/ionomycin (P/I); RIPA lysate with nuclease, sonicated; antibody and protein A/G agarose overnight at 4°C; washed three times with TBST; Western blot

B1: NFATc1 (protein, UniProt O95644 1-943)
chain: MPSTSFPVPSKFPLGPAAAVFGRGETLGPAPRAGGTMKSAEEEHYGYASSNVSPALPLPTAHSTLPAPCHNLQTSTPGIIPPADHPSGYGAALDGGPAGYFLSSGHTRPDGAPALESPRIEITSCLGLYHNNNQFFHDVEVEDVLPSSKRSPSTATLSLPSLEAYRDPSCLSPASSLSSRSCNSEASSYESNYSYPYASPQTSPWQSPCVSPKTTDPEEGFPRGLGACTLLGSPRHSPSTSPRASVTEESWLGARSSRPASPCNKRKYSLNGRQPPYSPHHSPTPSPHGSPRVSVTDDSWLGNTTQYTSSAIVAAINALTTDSSLDLGDGVPVKSRKTTLEQPPSVALKVEPVGEDLGSPPPPADFAPEDYSSFQHIRKGGFCDQYLAVPQHPYQWAKPKPLSPTSYMSPTLPALDWQLPSHSGPYELRIEVQPKSHHRAHYETEGSRGAVKASAGGHPIVQLHGYLENEPLMLQLFIGTADDRLLRPHAFYQVHRITGKTVSTTSHEAILSNTKVLEIPLLPENSMRAVIDCAGILKLRNSDIELRKGETDIGRKNTRVRLVFRVHVPQPSGRTLSLQVASNPIECSQRSAQELPLVEKQSTDSYPVVGGKKMVLSGHNFLQDSKVIFVEKAPDGHHVWEMEAKTDRDLCKPNSLVVEIPPFRNQRITSPVHVSFYVCNGKRKRSQYQRFTYLPANVPIIKTEPTDDYEPAPTCGPVSQGLSPLPRPYYSQQLAMPPDPSSCLVAGFPPCPQRSTLMPAAPGVSPKLHDLSPAAYTKGVASPGHCHLGLPQPAGEAPAVQDVPRPVATHPGSPGQPPPALLPQQVSAPPSSSCPPGLEHSLCPSSPSPPLPPATQEPTCLQPCSPACPPATGRPQHLPSTVRRDESPTAGPRLLPEVHEDGSPNLAPIPVTVKREPEELDQLYLDDVNEIIRNDLSSTSTHS
- binding: binds
